Measurements: the supplement of paper PMC10849652
This is one part of the list.

Protein sequences, listed by entry. Tags and fused reporters are not part of them. Lines headed by an entry give the natural chain unless they say otherwise; changes in a name come on top.
UniProt Q02790: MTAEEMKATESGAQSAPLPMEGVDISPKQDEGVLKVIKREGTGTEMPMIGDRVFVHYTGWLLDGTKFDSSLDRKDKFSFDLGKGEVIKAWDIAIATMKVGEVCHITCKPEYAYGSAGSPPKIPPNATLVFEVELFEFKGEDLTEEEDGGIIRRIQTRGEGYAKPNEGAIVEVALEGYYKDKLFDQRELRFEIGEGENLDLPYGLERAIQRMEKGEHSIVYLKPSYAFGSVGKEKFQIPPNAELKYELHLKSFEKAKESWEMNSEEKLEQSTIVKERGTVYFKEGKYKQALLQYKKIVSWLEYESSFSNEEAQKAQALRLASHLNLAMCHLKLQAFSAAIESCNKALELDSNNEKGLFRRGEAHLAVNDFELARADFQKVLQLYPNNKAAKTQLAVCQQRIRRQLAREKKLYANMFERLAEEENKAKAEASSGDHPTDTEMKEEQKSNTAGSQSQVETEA
UniProt Q6P3S6: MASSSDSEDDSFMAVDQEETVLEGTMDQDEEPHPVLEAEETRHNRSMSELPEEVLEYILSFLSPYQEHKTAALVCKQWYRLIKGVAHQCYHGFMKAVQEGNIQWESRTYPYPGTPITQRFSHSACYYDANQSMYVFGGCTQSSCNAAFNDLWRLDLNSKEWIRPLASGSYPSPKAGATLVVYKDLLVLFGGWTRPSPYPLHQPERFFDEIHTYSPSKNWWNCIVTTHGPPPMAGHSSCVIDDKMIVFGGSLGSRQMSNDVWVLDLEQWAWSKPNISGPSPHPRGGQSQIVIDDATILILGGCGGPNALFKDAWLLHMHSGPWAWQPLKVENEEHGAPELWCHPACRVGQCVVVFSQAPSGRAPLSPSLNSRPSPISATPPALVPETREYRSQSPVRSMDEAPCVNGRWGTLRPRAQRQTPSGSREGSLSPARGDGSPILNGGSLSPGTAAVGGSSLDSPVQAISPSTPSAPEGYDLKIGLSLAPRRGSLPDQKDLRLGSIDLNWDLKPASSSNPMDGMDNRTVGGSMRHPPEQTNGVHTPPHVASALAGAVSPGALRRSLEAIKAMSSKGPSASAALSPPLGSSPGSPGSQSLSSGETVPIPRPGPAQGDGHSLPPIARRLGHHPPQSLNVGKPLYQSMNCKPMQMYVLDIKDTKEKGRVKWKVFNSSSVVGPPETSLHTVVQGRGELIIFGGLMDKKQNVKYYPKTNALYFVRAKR
UniProt Q9Y3D6: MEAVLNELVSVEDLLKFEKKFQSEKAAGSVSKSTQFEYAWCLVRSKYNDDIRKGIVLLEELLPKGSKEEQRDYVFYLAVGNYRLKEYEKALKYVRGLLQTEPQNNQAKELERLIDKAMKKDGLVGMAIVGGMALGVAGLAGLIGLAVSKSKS
UniProt P37268: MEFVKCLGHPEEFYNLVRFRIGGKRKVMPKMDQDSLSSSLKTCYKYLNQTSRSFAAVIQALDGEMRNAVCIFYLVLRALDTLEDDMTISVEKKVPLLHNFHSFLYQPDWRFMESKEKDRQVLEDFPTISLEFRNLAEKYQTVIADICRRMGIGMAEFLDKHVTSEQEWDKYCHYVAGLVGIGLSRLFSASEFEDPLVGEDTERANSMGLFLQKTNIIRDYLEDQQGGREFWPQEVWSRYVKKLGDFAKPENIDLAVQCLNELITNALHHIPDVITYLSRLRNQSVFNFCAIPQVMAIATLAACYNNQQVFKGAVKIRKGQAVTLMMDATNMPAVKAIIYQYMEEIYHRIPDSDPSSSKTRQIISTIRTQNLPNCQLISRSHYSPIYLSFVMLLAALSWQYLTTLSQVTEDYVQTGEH
UniProt P22830: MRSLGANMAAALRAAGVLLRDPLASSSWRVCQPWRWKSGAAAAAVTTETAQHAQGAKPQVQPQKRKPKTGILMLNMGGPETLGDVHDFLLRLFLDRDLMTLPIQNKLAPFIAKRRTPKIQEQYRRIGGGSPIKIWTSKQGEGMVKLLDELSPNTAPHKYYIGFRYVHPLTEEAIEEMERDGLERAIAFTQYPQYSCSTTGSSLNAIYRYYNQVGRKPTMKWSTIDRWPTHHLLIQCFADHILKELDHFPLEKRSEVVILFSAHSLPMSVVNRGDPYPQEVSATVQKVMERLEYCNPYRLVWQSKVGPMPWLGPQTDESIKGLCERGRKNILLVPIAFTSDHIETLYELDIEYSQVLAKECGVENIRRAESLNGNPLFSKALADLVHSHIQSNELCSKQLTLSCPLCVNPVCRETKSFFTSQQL
UniProt P98173: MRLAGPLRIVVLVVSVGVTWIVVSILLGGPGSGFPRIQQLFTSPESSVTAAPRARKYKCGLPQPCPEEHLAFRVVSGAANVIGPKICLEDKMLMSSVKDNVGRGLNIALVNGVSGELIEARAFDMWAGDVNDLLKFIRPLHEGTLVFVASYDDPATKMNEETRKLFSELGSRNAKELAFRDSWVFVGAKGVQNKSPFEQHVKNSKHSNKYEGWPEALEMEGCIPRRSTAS
UniProt Q9UK97: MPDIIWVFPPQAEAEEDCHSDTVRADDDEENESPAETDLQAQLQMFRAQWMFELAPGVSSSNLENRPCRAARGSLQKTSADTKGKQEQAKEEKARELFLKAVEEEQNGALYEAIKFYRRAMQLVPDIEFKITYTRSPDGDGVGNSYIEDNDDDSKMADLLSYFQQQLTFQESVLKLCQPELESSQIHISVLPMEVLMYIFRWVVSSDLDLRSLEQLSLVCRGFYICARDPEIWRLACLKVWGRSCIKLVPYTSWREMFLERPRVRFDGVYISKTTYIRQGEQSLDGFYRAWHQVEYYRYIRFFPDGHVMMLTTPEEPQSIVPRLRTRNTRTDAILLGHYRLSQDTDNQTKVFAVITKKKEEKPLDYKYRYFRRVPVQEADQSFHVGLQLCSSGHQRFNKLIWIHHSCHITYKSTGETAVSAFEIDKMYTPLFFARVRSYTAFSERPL
UniProt Q96HJ9: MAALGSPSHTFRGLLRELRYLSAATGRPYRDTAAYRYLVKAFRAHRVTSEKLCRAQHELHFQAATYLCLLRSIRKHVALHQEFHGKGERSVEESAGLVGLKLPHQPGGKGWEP
UniProt Q9Y613: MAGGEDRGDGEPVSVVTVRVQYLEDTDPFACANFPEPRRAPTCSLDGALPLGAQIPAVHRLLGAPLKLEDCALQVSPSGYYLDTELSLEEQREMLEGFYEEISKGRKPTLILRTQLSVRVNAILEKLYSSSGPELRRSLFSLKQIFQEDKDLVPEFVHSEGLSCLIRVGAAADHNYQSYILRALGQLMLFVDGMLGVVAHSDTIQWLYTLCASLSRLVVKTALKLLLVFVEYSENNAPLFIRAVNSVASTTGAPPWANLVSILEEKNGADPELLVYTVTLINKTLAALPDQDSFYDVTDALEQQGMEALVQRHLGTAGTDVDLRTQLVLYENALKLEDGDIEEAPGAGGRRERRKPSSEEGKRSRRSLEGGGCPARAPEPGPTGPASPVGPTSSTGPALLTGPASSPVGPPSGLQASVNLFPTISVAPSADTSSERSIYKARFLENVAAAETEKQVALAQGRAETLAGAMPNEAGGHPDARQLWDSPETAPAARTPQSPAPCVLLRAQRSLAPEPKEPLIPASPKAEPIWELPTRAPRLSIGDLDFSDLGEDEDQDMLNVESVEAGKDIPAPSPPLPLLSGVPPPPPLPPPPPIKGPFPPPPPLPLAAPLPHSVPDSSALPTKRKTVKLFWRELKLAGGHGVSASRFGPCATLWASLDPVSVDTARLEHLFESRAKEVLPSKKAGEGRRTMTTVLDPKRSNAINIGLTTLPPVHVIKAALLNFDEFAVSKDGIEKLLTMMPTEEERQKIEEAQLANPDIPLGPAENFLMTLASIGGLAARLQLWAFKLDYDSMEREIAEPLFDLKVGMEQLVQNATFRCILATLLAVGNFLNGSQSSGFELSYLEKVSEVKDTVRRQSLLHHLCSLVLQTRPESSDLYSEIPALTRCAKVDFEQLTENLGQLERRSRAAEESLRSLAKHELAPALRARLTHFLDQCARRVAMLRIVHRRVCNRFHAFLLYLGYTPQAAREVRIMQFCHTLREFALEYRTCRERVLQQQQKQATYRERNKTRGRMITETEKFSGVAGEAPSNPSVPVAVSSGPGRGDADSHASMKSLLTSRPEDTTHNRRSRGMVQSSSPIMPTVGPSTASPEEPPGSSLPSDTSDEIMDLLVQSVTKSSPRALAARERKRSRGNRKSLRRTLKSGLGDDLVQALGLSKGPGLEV
UniProt P14324: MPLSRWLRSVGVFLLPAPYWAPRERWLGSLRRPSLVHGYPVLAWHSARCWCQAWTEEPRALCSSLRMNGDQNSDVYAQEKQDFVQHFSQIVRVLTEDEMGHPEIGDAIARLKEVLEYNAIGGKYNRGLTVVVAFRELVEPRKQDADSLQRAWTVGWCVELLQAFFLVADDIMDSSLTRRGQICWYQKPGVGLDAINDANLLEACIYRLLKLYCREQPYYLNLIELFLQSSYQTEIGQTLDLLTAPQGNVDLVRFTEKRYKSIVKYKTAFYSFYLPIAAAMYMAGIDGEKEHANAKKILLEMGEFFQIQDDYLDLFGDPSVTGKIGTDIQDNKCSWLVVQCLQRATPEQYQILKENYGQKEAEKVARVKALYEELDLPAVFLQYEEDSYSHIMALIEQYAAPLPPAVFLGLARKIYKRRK
UniProt Q9NRD1: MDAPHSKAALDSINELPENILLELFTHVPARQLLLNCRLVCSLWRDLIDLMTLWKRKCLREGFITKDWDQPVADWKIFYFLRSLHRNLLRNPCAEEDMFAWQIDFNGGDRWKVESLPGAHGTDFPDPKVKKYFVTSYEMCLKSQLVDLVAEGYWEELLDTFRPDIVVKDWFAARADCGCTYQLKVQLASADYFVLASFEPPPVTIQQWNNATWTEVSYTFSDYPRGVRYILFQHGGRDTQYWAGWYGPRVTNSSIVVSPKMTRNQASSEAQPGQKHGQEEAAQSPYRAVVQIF
UniProt Q9NVI1: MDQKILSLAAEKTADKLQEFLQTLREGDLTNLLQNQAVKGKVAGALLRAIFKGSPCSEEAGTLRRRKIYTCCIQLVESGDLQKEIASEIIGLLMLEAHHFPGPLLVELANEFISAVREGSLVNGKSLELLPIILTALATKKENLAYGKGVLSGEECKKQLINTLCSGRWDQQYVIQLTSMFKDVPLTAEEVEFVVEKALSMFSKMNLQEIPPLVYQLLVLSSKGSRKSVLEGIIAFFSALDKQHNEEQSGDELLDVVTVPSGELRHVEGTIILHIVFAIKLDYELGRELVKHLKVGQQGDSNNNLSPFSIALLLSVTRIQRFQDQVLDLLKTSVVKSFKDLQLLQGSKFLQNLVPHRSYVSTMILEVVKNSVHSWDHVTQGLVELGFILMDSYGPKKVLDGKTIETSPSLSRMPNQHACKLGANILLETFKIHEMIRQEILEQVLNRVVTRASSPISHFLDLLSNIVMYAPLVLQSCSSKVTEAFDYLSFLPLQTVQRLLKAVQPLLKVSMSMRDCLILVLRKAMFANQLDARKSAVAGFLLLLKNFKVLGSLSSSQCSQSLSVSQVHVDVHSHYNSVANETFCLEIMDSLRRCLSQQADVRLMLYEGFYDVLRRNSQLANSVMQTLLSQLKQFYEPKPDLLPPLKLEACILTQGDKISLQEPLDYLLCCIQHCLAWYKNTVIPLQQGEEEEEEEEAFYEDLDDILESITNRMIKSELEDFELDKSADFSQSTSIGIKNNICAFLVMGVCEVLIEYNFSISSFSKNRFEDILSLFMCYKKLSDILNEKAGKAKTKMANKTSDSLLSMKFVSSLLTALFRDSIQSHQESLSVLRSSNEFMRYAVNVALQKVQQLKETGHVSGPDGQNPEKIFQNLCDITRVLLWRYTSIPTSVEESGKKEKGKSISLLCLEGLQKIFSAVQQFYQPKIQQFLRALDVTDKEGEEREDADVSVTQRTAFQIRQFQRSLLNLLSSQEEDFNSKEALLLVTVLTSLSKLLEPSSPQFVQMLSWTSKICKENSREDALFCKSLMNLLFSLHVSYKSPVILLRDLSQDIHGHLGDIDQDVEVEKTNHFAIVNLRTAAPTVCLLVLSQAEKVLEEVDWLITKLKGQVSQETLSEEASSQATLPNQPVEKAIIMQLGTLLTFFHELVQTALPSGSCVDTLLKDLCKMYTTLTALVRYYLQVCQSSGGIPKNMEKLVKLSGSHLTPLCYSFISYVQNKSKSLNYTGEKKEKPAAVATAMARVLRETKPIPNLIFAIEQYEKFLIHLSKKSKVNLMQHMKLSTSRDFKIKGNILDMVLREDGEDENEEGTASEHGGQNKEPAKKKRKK
UniProt P39748, whole entry, looked up: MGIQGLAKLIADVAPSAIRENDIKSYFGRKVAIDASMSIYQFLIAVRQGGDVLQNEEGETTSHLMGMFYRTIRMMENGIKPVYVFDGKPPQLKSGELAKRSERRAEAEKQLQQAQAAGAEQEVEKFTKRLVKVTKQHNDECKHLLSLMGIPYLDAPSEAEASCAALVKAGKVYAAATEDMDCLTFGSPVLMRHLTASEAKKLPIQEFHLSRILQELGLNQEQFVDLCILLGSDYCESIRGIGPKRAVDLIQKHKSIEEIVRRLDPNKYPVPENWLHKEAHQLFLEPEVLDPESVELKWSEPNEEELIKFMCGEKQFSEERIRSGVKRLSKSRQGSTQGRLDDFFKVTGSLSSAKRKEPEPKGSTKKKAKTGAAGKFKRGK

Compound: CC[C@@H]1C(=O)N(C)c2cnc(Nc3ccc(C(=O)NC4CCN(C)CC4)cc3OC)nc2N1C1CCCC1
Assay: log2 fold change, soluble protein after heating vs DMSO (PISA); higher = thermal stabilisation; K562 cells, 10 uM, 30 min; active = over 0.2 and 3.5 SD of the protein, either way, in both replicates (recomputed)
In short: (§1)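 K562 cells at 2×10^6 cells/mL were exposed to 10 μM compound for 30 min, then aliquots were heated for 3 min across 48°C-58°C, pooled, and extracted in PBS containing 0.5% NP-40 at 4°C. The supernatant after 21,000xg for 90 min was taken as soluble protein and measured by TMTpro 16plex LC-MS/MS with channel sums equalised. Thermal stability is reported relative to control samples, with values from duplicates. Fold changes are given on a log2 scale.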

| Target | log2 fold change |
| --- | --- |
| FGB (UniProt P02675) | inactive: 0.221 |
| FNDC3A (UniProt Q9Y2H6) | inactive: 0.051 |
| FKBP4 (UniProt Q02790) | inactive: -0.066 |
| FBXO42 (UniProt Q6P3S6) | inactive: 0.093 |
| FASTKD1 (UniProt Q53R41) | inactive: -0.023 |
| FAM89A (UniProt Q96GI7) | inactive: 0.08 |
| FAM53C (UniProt Q9NYF3) | inactive: -0.074 |
| FLT1 (UniProt P17948) | inactive: 0.069 |
| FCHO1 (UniProt O14526) | inactive: -0.186 |
| FIS1 (UniProt Q9Y3D6) | inactive: 0.005 |
| FDFT1 (UniProt P37268) | inactive: -0.067 |
| FBXO38 (UniProt Q6PIJ6) | inactive: -0.104 |
| FECH isoform 2 (UniProt P22830) | inactive: 0.399 |
| FAM53B (UniProt Q14153) | inactive: -0.011 |
| FANCD2 isoform 1 (UniProt Q9BXW9) | inactive: -0.229 |
| FAM3A (UniProt P98173) | inactive: 0.024 |
| FER (UniProt P16591) | inactive: 0.057 |
| FBXL8 (UniProt Q96CD0) | inactive: 0.014 |
| FIZ1 (UniProt Q96SL8) | inactive: 0.169 |
| FIBP (UniProt O43427) | inactive: 0.164 |

| Target | log2 fold change |
| --- | --- |
| FCHSD1 (UniProt Q86WN1) | inactive: 0.072 |
| FANCA (UniProt O15360) | inactive: 0.098 |
| FCF1 (UniProt Q9Y324) | inactive: 0.095 |
| FBXO9 (UniProt Q9UK97) | inactive: -0.17 |
| FMC1 (UniProt Q96HJ9) | inactive: 0.04 |
| FAM241A (UniProt Q8N8J7) | inactive: -0.026 |
| FHOD1 (UniProt Q9Y613) | inactive: 0.127 |
| FMR1 (UniProt Q06787) | inactive: -0.068 |
| FNTA (UniProt P49354) | inactive: 0.123 |
| FAM76A isoform 3 (UniProt Q8TAV0) | inactive: 0.027 |
| FAM222B (UniProt Q8WU58) | inactive: 0.017 |
| FDPS (UniProt P14324) | inactive: -0.059 |
| FBXO6 (UniProt Q9NRD1) | active: 0.683 |
| FAT2 (UniProt Q9NYQ8) | inactive: 0.011 |
| FANCI (UniProt Q9NVI1) | active: -0.277 |
| FEN1 (UniProt P39748) | inactive: -0.073 |
| FAM210B (UniProt Q96KR6) | inactive: -0.012 |
| FITM2 (UniProt Q8N6M3) | inactive: 0.022 |
| FAT4 (UniProt Q6V0I7) | inactive: 0.033 |

Compound: CC[C@@H]1C(=O)N(C)c2cnc(Nc3ccc(C(=O)N[C@H]4CC[C@H](N5CCN(CC6CC6)CC5)CC4)cc3OC)nc2N1C(C)C [volasertib]
Assay: as above
In short: as §1

| Target | log2 fold change |
| --- | --- |
| FKBP4 (UniProt Q02790) | inactive: -0.136 |
| FBXO42 (UniProt Q6P3S6) | inactive: 0.011 |
| FAM53C (UniProt Q9NYF3) | inactive: -0.05 |
| FLT1 (UniProt P17948) | inactive: -0.015 |
| FCHO1 (UniProt O14526) | active: -0.768 |
| FIS1 (UniProt Q9Y3D6) | inactive: 0.046 |
| FDFT1 (UniProt P37268) | inactive: -0.151 |
| FBXO38 (UniProt Q6PIJ6) | inactive: -0.277 |
| FECH isoform 2 (UniProt P22830) | inactive: 0.368 |
| FANCD2 isoform 1 (UniProt Q9BXW9) | inactive: -0.251 |
| FAM3A (UniProt P98173) | inactive: -0.11 |
| FIBP (UniProt O43427) | inactive: -0.093 |
| FCHSD1 (UniProt Q86WN1) | inactive: -0.12 |
| FCF1 (UniProt Q9Y324) | inactive: 0.108 |
| FBXO9 (UniProt Q9UK97) | active: -0.545 |
| FMC1 (UniProt Q96HJ9) | inactive: 0.102 |
| FAM241A (UniProt Q8N8J7) | inactive: 0.007 |
| FHOD1 (UniProt Q9Y613) | inactive: -0.055 |
| FMR1 (UniProt Q06787) | inactive: -0.173 |
| FNTA (UniProt P49354) | active: 0.362 |
| FAM76A isoform 3 (UniProt Q8TAV0) | inactive: 0.104 |
| FAM222B (UniProt Q8WU58) | inactive: -0.11 |
| FDPS (UniProt P14324) | inactive: -0.191 |
| FBXO6 (UniProt Q9NRD1) | active: 0.696 |
| FAT2 (UniProt Q9NYQ8) | inactive: 0.029 |
| FANCI (UniProt Q9NVI1) | inactive: -0.159 |
| FEN1 (UniProt P39748) | inactive: -0.037 |

Compound: CC[C@H](C)N1C=C(C2=C(C=C(C=C21)C3=CN=C(C=C3)N4CCNCC4)C(=O)NCC5=C(C=C(NC5=O)C)C)C
Assay: as above
In short: as §1

| Target | log2 fold change |
| --- | --- |
| FGB (UniProt P02675) | inactive: -0.136 |
| FKBP4 (UniProt Q02790) | inactive: 0.07 |
| FBXO42 (UniProt Q6P3S6) | inactive: 0.028 |
| FASTKD1 (UniProt Q53R41) | inactive: -0.088 |
| FAM89A (UniProt Q96GI7) | inactive: -0.073 |
| FAM53C (UniProt Q9NYF3) | inactive: -0.098 |
| FCHO1 (UniProt O14526) | inactive: 0.168 |
| FIS1 (UniProt Q9Y3D6) | inactive: -0.023 |
| FDFT1 (UniProt P37268) | inactive: -0.01 |
| FECH isoform 2 (UniProt P22830) | inactive: 0.037 |
| FANCD2 isoform 1 (UniProt Q9BXW9) | inactive: 0.118 |
| FAM3A (UniProt P98173) | inactive: -0.02 |
| FIZ1 (UniProt Q96SL8) | inactive: 0.088 |
| FBXO9 (UniProt Q9UK97) | inactive: 0.06 |
| FMC1 (UniProt Q96HJ9) | inactive: -0.039 |
| FAM241A (UniProt Q8N8J7) | inactive: -0.002 |
| FHOD1 (UniProt Q9Y613) | inactive: 0.075 |
| FNTA (UniProt P49354) | inactive: 0.006 |
| FDPS (UniProt P14324) | inactive: 0.075 |
| FBXO6 (UniProt Q9NRD1) | inactive: 0.096 |
| FANCI (UniProt Q9NVI1) | inactive: 0.127 |
| FEN1 (UniProt P39748) | inactive: 0.086 |
| FAM210B (UniProt Q96KR6) | inactive: -0.026 |
| FITM2 (UniProt Q8N6M3) | inactive: -0.071 |
| FAT4 (UniProt Q6V0I7) | inactive: -0.047 |
